# Results from paper PMC5526789, “Structure of Full-Length SMC and Rearrangements Required for Chromosome Organization” (Molecular Cell, 2017).
# These are yes or no findings as the source states them, for the method shown. Some binding calls cover weakened binding; strength is not graded here.
# T1: BsSmcHd(EQ)-CC30 (Bacillus subtilis) (UniProt P51834)
# T1 sequence: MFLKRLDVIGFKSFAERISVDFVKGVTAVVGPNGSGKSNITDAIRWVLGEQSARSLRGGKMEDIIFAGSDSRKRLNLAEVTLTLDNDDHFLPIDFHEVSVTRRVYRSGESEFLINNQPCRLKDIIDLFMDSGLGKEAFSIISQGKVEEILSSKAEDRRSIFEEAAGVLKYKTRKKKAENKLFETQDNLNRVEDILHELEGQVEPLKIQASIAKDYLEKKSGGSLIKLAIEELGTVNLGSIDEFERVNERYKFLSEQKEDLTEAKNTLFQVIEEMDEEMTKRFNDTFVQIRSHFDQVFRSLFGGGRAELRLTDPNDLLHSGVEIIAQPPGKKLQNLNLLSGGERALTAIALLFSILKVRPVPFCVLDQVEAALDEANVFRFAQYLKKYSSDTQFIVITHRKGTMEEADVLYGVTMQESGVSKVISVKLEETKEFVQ
# Molecular target: T1, BsSmcHd(EQ)-CC30 (Bacillus subtilis)
# Test: crystal structure; BsSmcHd(EQ)-CC30:ATPγS–ScpA^C; complex incubated with 5 mM MgCl2 and 2 mM ATPγS to induce dimerization; 10% PEG3000, 0.1 M imidazole pH 8.0, 0.2 M Li2SO4, hexamine cobalt chloride; both purified
binder,measurement,value
"BsScpA^C (domain or fragment, UniProt P35154 167-251) NRPMETTITRQDIPIEARMNEIVHSLKSRGTRINFMDLFPYEQKEHLVVTFLAVLELMKNQLVLIEQEHNFSDIYITGSESIHGA",binding,binds
